Experimental data reported in publication PMC6281644.
Results are given in words; binding and its absence hold for the method and conditions named. Binding seen in cells or lysates may run through a third protein. Some results given as binding are weak or reduced against the parent protein; the word gives no strength.

Amino acid sequences for entries named in this document (tags omitted).
UniProt F4JNA9: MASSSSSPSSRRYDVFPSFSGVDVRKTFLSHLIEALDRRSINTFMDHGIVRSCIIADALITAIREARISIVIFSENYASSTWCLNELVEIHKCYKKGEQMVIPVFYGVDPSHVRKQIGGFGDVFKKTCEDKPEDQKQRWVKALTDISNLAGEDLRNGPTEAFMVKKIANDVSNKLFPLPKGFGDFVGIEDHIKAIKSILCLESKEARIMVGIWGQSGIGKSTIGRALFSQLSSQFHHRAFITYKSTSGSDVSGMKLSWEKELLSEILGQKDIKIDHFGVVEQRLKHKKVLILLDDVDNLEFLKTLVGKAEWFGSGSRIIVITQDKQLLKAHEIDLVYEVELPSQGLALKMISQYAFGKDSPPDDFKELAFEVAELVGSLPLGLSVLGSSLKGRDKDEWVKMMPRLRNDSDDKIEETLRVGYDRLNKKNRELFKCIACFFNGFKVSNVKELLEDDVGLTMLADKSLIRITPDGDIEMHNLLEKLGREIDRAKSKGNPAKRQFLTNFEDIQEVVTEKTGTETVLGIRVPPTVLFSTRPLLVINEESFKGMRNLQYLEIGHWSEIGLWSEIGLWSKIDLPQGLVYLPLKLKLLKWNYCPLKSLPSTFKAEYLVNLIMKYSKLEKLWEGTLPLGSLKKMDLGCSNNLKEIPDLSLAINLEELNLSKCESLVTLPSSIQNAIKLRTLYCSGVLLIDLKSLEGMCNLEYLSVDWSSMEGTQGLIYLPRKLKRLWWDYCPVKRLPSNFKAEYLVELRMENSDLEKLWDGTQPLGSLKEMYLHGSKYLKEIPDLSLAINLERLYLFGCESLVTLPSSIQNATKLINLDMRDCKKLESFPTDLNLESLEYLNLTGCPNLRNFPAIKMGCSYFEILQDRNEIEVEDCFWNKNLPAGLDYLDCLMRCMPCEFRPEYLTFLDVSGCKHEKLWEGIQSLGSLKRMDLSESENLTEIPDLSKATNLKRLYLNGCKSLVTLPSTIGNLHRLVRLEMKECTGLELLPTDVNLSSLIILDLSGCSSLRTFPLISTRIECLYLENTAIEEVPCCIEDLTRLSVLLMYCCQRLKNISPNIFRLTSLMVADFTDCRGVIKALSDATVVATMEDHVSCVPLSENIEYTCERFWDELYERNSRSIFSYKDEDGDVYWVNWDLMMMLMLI

Columns and labels:
[1] = target: GFP-HaRxL103^Emoy2 (Hyaloperonospora arabidopsidis (isolate Emoy2)); assay: co-IP; nuclear protein extract of N. benthamiana leaves at 2 dpi; MACS MicroBeads with GFP antibody; washed with nuclei resuspension buffer; blots with anti-GFP and anti-FLAG
[2] = target: GFP-HaRxL103^Emoy2 (Hyaloperonospora arabidopsidis (isolate Emoy2)); assay: co-IP; extracts of N. benthamiana leaves co-expressing both proteins; immunoprecipitation with MACS MicroBeads with GFP antibody; blots with anti-GFP and anti-FLAG
[3] = target: GFP-HaRxL103^Emoy2 (Hyaloperonospora arabidopsidis (isolate Emoy2)); assay: co-IP; cytoplasmic protein extract of N. benthamiana leaves at 2 dpi; MACS MicroBeads with GFP antibody; washed with lysis buffer; blots with anti-GFP and anti-FLAG

Measured: binding

RPP4-FLAG (from UniProt F4JNA9 1-1147) (receptor)
binds: all assays above
